Experimental data as given in patent US20250059275A1.
Results are given in words; binding and its absence hold for the method and conditions named. Some binding calls cover weakened binding; strength is not graded here.

The chains behind the UniProt entries cited, without tags or fusion partners. Residues count along the entry.
UniProt Q495A1, residues 22-141: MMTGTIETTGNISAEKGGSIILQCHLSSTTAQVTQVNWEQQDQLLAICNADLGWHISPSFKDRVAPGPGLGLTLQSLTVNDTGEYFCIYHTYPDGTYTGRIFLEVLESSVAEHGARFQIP

Experiments:
[1] = biological target: cynomolgus monkey TIGIT expressed on CHO-K1 cells (CHO-mkTIGIT) (cynomolgus monkey); test: flow cytometry on CHO-mkTIGIT cells, anti-human IgG secondary antibody
[2] = biological target: human TIGIT-HIS (Biointron, BI120) (human) (UniProt Q495A1); test: Octet BLI tandem epitope competition, TIGIT-HIS loaded on the sensor, first antibody step
[3] = biological target: human TIGIT-HIS (Biointron, BI120) (human) (UniProt Q495A1); test: Octet BLI on TIGIT-HIS loaded sensor
[4] = biological target: human TIGIT-HIS (Biointron, BI120) (human) (UniProt Q495A1); test: Octet BLI, TIGIT-HIS loaded on NTA sensor, antibody dilution series in solution

Measured: binding

B1: JHH4A063 (antibody, V domains shown)
VH: EVQLVESGGGLVQPGRSLRLSCTASGFNFDDYGMHWVRQAPGKGLEWVSGISWNSISIGSADSVKGRFTISRDNAKNSLYLQMNSLRPEDTALYYCAKDGGDHYYYGMDVWGQGTTVTVSS
VL: DIMMTQSPLSLPVTPGEPASISCRSSQSLLHSNGYKYLNWYLQKPGQSPLLLIYLGSNRASGVPDRFSGSGSGTDFTLKISRVEAEDVGVYYCMQALQTPLTFGGGTKVEIK
binds: all assays above

B2: JHH4A057 (antibody, V domains shown)
VH: QVQLVQSGSELKKPGASVKVSCKASGYTLTSHALNWVRQAPGQGLEWMGWINTNTGNPTYVQGFTGRFVFSLDTSVSTAYLQISSLKAEDTAVYYCARGYSSPPRMDVWGQGTTVTVSS
VL: EIVLTQSPGTLFLSPGERATLSCRASQSVSRNYLVWYQQKPGQAPRLLIYGASTRATGIPDRFSGSGSGTDFTLTIRRLEPEDFALYYCQQYGSSPFTFGQGTKLEIN
binds: [1] | [4]
